PubChem BioAssay AID1259405 – NCATS, 2018
The whole screen tested about 50,000 reagents; shown is an unselected part. About 4,000 of them (8%) were called active. 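Mouse siRNA library applied to hamster cells; one well for each siRNA.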 The numbers tell different reagents against one gene apart. No sequences are given here.

Test: 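Silenced genes that increase secreted GFP made by CHO cells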 (primary screen)
Cells: Chinese hamster CHO-K1 ovary cells with stable secreted eGFP expression
Reagents: single siRNA against mouse genes, 0.8 pmol siRNA per well (2 µl of 400 nM stock)
Timing: 3 days
Detection: 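Percent of the per-plate non-targeting control median for intracellular GFP per well by laser scanning cytometry and for cell viability by ATP luminescence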
Reading the numbers: GFP, % of control: higher = more GFP per well, higher productivity; viability (ATP), % of control: higher = more viable cells (more ATP)
Rule for the call: 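Called active when intracellular GFP, relative to negative control, is at or above 120%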

Target gene | reagent no. | GFP, % of control | viability (ATP), % of control | Outcome
Chrne | 1 | 68.3 | 71.6 | inactive
Chrne | 2 | 42.8 | 81.8 | inactive
Chrne | 3 | 63.5 | 70.1 | inactive
Zfp599 | 1 | 75.8 | 75.1 | inactive
Zfp599 | 2 | 60.5 | 65 | inactive
Zfp599 | 3 | 100 | 89.7 | inactive
Cemip2 | 1 | 73.5 | 83.9 | inactive
Cemip2 | 2 | 88.1 | 116 | inactive
Cemip2 | 3 | 106 | 127 | inactive
Rtraf | 1 | 50.5 | 72.6 | inactive
Rtraf | 2 | 49.1 | 78.5 | inactive
Rtraf | 3 | 56.7 | 73.6 | inactive
Rtraf | 4 | 98.2 | 88.4 | inactive
Rtraf | 5 | 123 | 113 | active
Rtraf | 6 | 103 | 86.5 | inactive
Or6c3 | 1 | 101 | 74.9 | inactive
Or6c3 | 2 | 60.3 | 68.3 | inactive
Or6c3 | 3 | 78.1 | 99.3 | inactive
Nwd1 | 1 | 96.5 | 88.4 | inactive
Nwd1 | 2 | 54.7 | 42.6 | inactive
Nwd1 | 3 | 37.4 | 53.4 | inactive
Rpl26 | 1 | 47.4 | 66.5 | inactive
Rpl26 | 2 | 24.1 | 29.5 | inactive
Rpl26 | 3 | 32.2 | 37.1 | inactive
Exog | 1 | 85.4 | 112 | inactive
Exog | 2 | 120 | 129 | inactive
Exog | 3 | 86.4 | 74.4 | inactive
Kif5c | 1 | 32.9 | 50.2 | inactive
Kif5c | 2 | 63.6 | 72.9 | inactive
Kif5c | 3 | 81.9 | 52.3 | inactive
4930519G04Rik | 1 | 86.3 | 87.3 | inactive
4930519G04Rik | 2 | 117 | 100 | inactive
4930519G04Rik | 3 | 68.5 | 85.6 | inactive
Gtf3c4 | 1 | 39.8 | 57.1 | inactive
Gtf3c4 | 2 | 83.3 | 72.3 | inactive
Gtf3c4 | 3 | 70.5 | 63.3 | inactive
Steap4 | 1 | 181 | 126 | active
Steap4 | 2 | 90.3 | 109 | inactive
Steap4 | 3 | 95.6 | 77.7 | inactive
Muc13 | 1 | 69.8 | 61.6 | inactive
Muc13 | 2 | 73.9 | 65.5 | inactive
Muc13 | 3 | 103 | 97.6 | inactive
Nhp2 | 1 | 73.7 | 55.8 | inactive
Nhp2 | 2 | 30.2 | 33.3 | inactive
Nhp2 | 3 | 121 | 74.8 | active
Rnasek | 1 | 52.2 | 64.7 | inactive
Rnasek | 2 | 37.6 | 57.9 | inactive
Rnasek | 3 | 84.4 | 88 | inactive
Adcy9 | 1 | 105 | 105 | inactive
Adcy9 | 2 | 176 | 99.6 | active
Adcy9 | 3 | 78.3 | 83.8 | inactive
Ehd2 | 1 | 131 | 125 | active
Ehd2 | 2 | 57.2 | 69.4 | inactive
Ehd2 | 3 | 84.5 | 94.3 | inactive
Ndst1 | 1 | 89.8 | 67.9 | inactive
Ndst1 | 2 | 79.3 | 66.8 | inactive
Ndst1 | 3 | 62.4 | 86.7 | inactive
Tas2r102 | 1 | 123 | 66.5 | active
Tas2r102 | 2 | 84.3 | 93.9 | inactive
Tas2r102 | 3 | 147 | 127 | active
Or10al2 | 1 | 53.3 | 55.2 | inactive
Or10al2 | 2 | 68.6 | 73.2 | inactive
Or10al2 | 3 | 67.5 | 29.8 | inactive
Or1n1b | 1 | 68.3 | 74.6 | inactive
Or1n1b | 2 | 89.3 | 86.5 | inactive
Or1n1b | 3 | 46.2 | 116 | inactive
Hoxa1 | 1 | 68.8 | 105 | inactive
Hoxa1 | 2 | 153 | 111 | active
Hoxa1 | 3 | 48.4 | 71.6 | inactive
Ccdc63 | 1 | 93.5 | 85 | inactive
Ccdc63 | 2 | 31.4 | 25.5 | inactive
Ccdc63 | 3 | 124 | 110 | active
Hnrnpul1 | 1 | 39.6 | 69.9 | inactive
Hnrnpul1 | 2 | 83 | 82.1 | inactive
Hnrnpul1 | 3 | 102 | 88.5 | inactive
Marcks | 1 | 88.1 | 55.1 | inactive
Marcks | 2 | 79.7 | 62.1 | inactive
Or4a67 | 1 | 82.3 | 51.9 | inactive
Or4a67 | 2 | 24.5 | 47 | inactive
Or4a67 | 3 | 103 | 92.1 | inactive
Ppp2r5e | 1 | 224 | 123 | active
Ppp2r5e | 2 | 83.2 | 82.2 | inactive
Ppp2r5e | 3 | 151 | 85.3 | active
Cybc1 | 1 | 43.2 | 65.1 | inactive
Cybc1 | 2 | 101 | 115 | inactive
Cybc1 | 3 | 140 | 155 | active
Napepld | 1 | 171 | 95.6 | active
Napepld | 2 | 40 | 44.9 | inactive
Napepld | 3 | 58.5 | 26 | inactive
Rbx1 | 1 | 91.1 | 78.6 | inactive
Rbx1 | 2 | 105 | 64.7 | inactive
Rbx1 | 3 | 102 | 115 | inactive
Gnl3 | 1 | 86.5 | 72.7 | inactive
Gnl3 | 2 | 59 | 75.1 | inactive
Osgin2 | 1 | 37.8 | 67.7 | inactive
Osgin2 | 2 | 74.1 | 98.6 | inactive
Osgin2 | 3 | 130 | 156 | active
Klf11 | 1 | 72.2 | 89.9 | inactive
Klf11 | 2 | 61.5 | 65.5 | inactive
Klf11 | 3 | 56 | 108 | inactive
A830005F24Rik | 1 | 83.6 | 91.3 | inactive
A830005F24Rik | 2 | 65.4 | 84.4 | inactive
A830005F24Rik | 3 | 69.2 | 94.9 | inactive
Or13a22 | 1 | 64 | 57.4 | inactive
Or13a22 | 2 | 82.9 | 104 | inactive
Or13a22 | 3 | 55.2 | 75.7 | inactive
Mrpl2 | 1 | 52.2 | 54.4 | inactive
Mrpl2 | 2 | 79.2 | 46 | inactive
Mrpl2 | 3 | 105 | 85.3 | inactive
